Reference: publication PMC4850456, “Phenylbutazone induces expression of MBNL1 and suppresses formation of MBNL1-CUG RNA foci in a mouse model of myotonic dystrophy”

Biological target: T1, GST-MBNL1 (1-260) (UniProt Q9NR56)
T1 sequence (looked up): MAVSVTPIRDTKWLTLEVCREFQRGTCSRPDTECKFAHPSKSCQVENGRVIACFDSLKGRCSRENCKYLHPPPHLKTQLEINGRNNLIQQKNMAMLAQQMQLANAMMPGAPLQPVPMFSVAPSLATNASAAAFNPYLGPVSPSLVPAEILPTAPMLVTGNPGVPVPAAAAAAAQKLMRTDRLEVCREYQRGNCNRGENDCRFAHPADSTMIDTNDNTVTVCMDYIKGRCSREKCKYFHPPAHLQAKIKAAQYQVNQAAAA
Assay: EMSA
Conditions: phenylbutazone added after complex formation, dose-dependent decrease of complex; 10 mM Tris-HCl pH 7.5, 50 mM KCl, 1 mM DTT, room temperature 30 min, 20 ul; 6 ug protein, RNA 2.5 pmol/ul; then PBZ 15 min at room temperature; recombinant protein; residues 1-260; label: 5'-biotin

GCCUGCUGCUGCUGCUGCUGCUGCUGCUGCUGGC [CUG repeat RNA probe]
binding result: binds more weakly

The exact form of at least one protein or probe is not confirmed. A weaker result is weaker than the reference pair of the same experiment. Tags and fusion partners may be left off the protein sequences shown.
